Reference: paper PMC3060119

Sequences of proteins named here, by UniProt entry; tags and fusion partners are left off. A change or cut given only in a name is not applied to a line headed by its entry.
UniProt Q9VR09: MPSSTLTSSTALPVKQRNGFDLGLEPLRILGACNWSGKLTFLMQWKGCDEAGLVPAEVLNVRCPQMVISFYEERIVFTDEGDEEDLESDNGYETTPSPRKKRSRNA
UniProt P05205: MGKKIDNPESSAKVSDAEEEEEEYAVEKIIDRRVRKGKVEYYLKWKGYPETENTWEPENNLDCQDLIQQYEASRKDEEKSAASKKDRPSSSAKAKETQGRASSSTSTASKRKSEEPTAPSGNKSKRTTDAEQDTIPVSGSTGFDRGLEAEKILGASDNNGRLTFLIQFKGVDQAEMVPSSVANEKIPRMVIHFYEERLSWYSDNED

How the values were obtained:
[1] = molecular target: D. melanogaster HP6 (Umbrea), yeast two-hybrid fusion (D. melanogaster) (UniProt Q9VR09); assay: two-hybrid; yeast two-hybrid (pGADT7-AD and pGBKT7-DNA-BD); activation of HIS3, growth on CM-trp-leu-his
[2] = molecular target: D. melanogaster HP1, full length, yeast two-hybrid fusion (D. melanogaster) (UniProt P05205); assay: as above

D. pseudoobscura LHR, yeast two-hybrid fusion (from UniProt A0A6I8UT92)
binding [1]: binds | binding [2]: binds

No constants are given. Whether binding was seen depends on the method and setting. Binding can be weak; no strength is given.
